PubChem BioAssay AID493014 (National Center for Advancing Translational Sciences (NCATS), 2011)
Values joined by “and” are separate entries in the source; they are usually repeats but may differ in a detail not shown here. Equal values may be shown once. This is one part of the list. The main result of the screen is listed elsewhere. These columns were measured beside it and carry no call. Most of these compounds were active or inconclusive in the main read-out, so they are no random draw. Words in brackets tell the shape of the fitted curve; partial curves, single points and poor fits give uncertain potencies.

Assay: qHTS Assay to Find Inhibitors of Chronic Active B-Cell Receptor Signaling
Settings: ABC-DLBCL IkBa-CBG/CBR reporter, luminescence ratio (green luciferase fused to IkBa over red control in TMD8 lymphoma cells), 4 h
Summary of the method: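 TMD8 human ABC-DLBCL cells with doxycycline-inducible IκBα–green luciferase fusion and unfused red luciferase, in 0.5% FBS medium; compounds up to 46 uM, 4 h at 37C. Green/red luminescence ratio, filter-overlap corrected, fitted to concentration-response curves.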

[1] = measured here: CBR red luminescence, cell number
[2] = measured here: IkBa-CBG green luminescence

Structure (SMILES) | AC50 [1] | AC50 [2]
COc1ccc(NC(=S)NC2CCCC2)c(OC)c1 | 10 µM [falling, partial curve, poor fit] | –
O=C(NC1CC(=O)N(c2ccc(F)cc2)C1)c1ccc(S(=O)(=O)N2CCCC2)cc1 (centres undefined) | 35.5 µM [falling, single point] | –
CC(=O)/C=C/c1ccccc1O | 35.5 µM [falling, single point] | –
Cc1cccc2c(=O)cc(C(F)(F)F)[nH]c12 | 35.5 µM [falling, single point] | –
CN1CCN(CCCNC(=O)c2ccc(/C=C3\Oc4ccccc4N(Cc4ccc(Cl)cc4)C3=O)cc2)CC1 | 14.1 µM [falling, single point] | –
Cc1cnc(=O)[nH]c1SCc1cccc([N+](=O)[O-])c1 | 4.47 µM [falling, full curve, poor fit] | –
N#CCC(=O)Nc1ccc(C(=O)OCC(=O)c2c[nH]c3ccccc23)cc1 | 2.91 µM [falling, single point] | –
c1ccc(Cn2nnnc2C(c2cccnc2)N2CCN(c3ccccc3)CC2)cc1 (centres undefined) | 20 µM [falling, single point] | 12.6 µM [rising, partial curve, poor fit]
Cc1ccc2[nH]c(=O)c(-c3nc4c(C)cccn4c3NCc3ccco3)cc2c1 | 35.5 µM [falling, single point] | –
NC(=NCCc1c[nH]c2ccccc12)NC(=O)c1ccc(F)cc1 | 3.55 µM [rising, single point] | –
CN1CCN(C(=O)C2=C[C@@H](c3ccc4c(c3)OCO4)C[C@@H](OCc3ccc(CO)cc3)O2)CC1 | 22.4 µM [rising, single point] | –
COc1cc(NC(=O)CN(C)C2CCCCC2)c(C)cc1[N+](=O)[O-] | 29.1 µM [falling, single point] | 29.1 µM [rising, partial curve, poor fit]
Cc1ccc(CN2CCN(C(=O)c3ccncc3)CC2)cc1 | 0.708 µM [rising, full curve, poor fit] | –
CCC(=O)Nc1nnc(Cc2ccccc2)s1 | 5.8 µM [rising, partial curve] | –
COc1ccc(OC)c(S(=O)(=O)NC(C)(C)C)c1 | 29.1 µM [rising, single point] | –
Cc1c(Cl)cccc1N1CC(C)(C)C1=O | 35.5 µM [rising, single point] | –
CCOc1cc2[nH]c(=O)n(Cc3cccc(OC)c3)c(=O)c2cc1OCC | 0.708 µM [falling, partial curve, poor fit] | –
S=C(Nc1ccccc1)N1CCc2ccccc21 | 22.4 µM [rising, partial curve, poor fit] | –
CC1Cc2cc(/C=C3/SC(=S)N(C)C3=O)ccc2O1 (centres undefined) | 12.6 µM [rising, partial curve] | –
COC(=O)c1cnn(-c2ccc(Cl)cc2)c1/C=N/NC(N)=S | 2.82 µM [falling, full curve] | –
Cn1cc(C(=O)N/N=C/c2cc(Br)cs2)c2ccccc21 | 3.16 µM [rising, partial curve, poor fit] | –

Gathered by group: those above with a Cl atom (three)
Structure (SMILES) | AC50 [1] | AC50 [2]
CN1CCN(CCCNC(=O)c2ccc(/C=C3\Oc4ccccc4N(Cc4ccc(Cl)cc4)C3=O)cc2)CC1 | 14.1 µM [falling, single point] | –
Cc1c(Cl)cccc1N1CC(C)(C)C1=O | 35.5 µM [rising, single point] | –
COC(=O)c1cnn(-c2ccc(Cl)cc2)c1/C=N/NC(N)=S | 2.82 µM [falling, full curve] | –

Further structures follow:

Structure (SMILES) | AC50 [1] | AC50 [2]
Cc1cccc(N=C2NN=C(c3ccc4c(c3)OCCO4)CS2)c1 | 12.6 µM [falling, partial curve] | –
C[C@]12C(=O)N(c3ccc(F)cc3)C(=O)N1[C@H]1c3ccccc3OC[C@@H]1[C@H]2c1ccccc1 | 0.092 µM [falling, full curve, poor fit] | –
CCOC(=O)c1ccc(COC(=O)c2cc(=O)[nH]c3ccccc23)o1 | 6.51 µM [falling, partial curve, poor fit] | –
O=C(COC(=O)c1cncc(Br)c1)NCc1ccccc1 | 3.16 µM [rising, partial curve, poor fit] | –
CC1CCCCN1C(=O)Cn1cc(/C=C2/C(=O)Nc3ccccc32)c2ccccc21 (centres undefined) | 12.6 µM [falling, partial curve, poor fit] | –
COc1ccc(/C=C/C(=O)O)cc1S(=O)(=O)NCc1ccccc1 | 35.5 µM [falling, single point] | –
COc1ccc(N2CC(C(=O)Nc3nc4ccc(OC)cc4s3)CC2=O)cc1 (centres undefined) | 11.2 µM [falling, partial curve] | –
C/C(=C\c1ccccc1)CN1CCN(c2ccccc2)CC1 | 2.91 µM [rising, full curve, poor fit] | –
CCCOC(=O)c1ccc(NC(=O)CSC2=Nc3ccccc3C3CC=NN23)cc1 (centres undefined) | 7.31 µM [falling, partial curve, poor fit] | –
Clc1ccc(OCCCN2CCCCC2)c(Br)c1 | 20 µM [falling, single point] | –
CCOC(=O)/C(C#N)=C(\O)c1ccc(NC(=O)c2ccc([N+](=O)[O-])cc2)cc1 | 1.41 µM [rising, partial curve, poor fit] | –
CCN(CC)c1ccc2cc(-c3nnc(-c4ccccc4)o3)c(=O)oc2c1 | 0.259 µM [falling, full curve, poor fit] | –
COC(=O)c1ccc(C(=O)OC)c(NC(=O)CSc2cccc[n+]2[O-])c1 | 3.55 µM [falling, single point] | 3.16 µM [falling, full curve, poor fit]
CCN1C(=O)/C(=C2/Sc3ccc(OC)cc3N2C)SC1=Nc1ccc(OC)cc1 | 0.398 µM [rising, full curve, poor fit] | –
CC(=O)c1cccc(NC(=O)NCc2ccccn2)c1 | 20.6 µM [falling, partial curve, poor fit] | –
Cc1cc(-c2nc3ncccc3o2)ccc1NC(=S)NC(=O)c1ccco1 | 10 µM [rising, partial curve, poor fit] | –
CC(=O)C1=C(C)Nc2ncnn2C1c1ccccc1OCc1ccccc1 (centres undefined) | 29.1 µM [falling, single point] | –
Cc1ccc(O)c(NC(=O)C2CC(c3c(F)cccc3Cl)=NO2)c1 (centres undefined) | 15.8 µM [falling, partial curve, poor fit] | –
CCCCCSc1nnc(-c2ccccc2N)c(=O)[nH]1 | 20.6 µM [falling, single point] | –
c1cc(-c2nnn(CCOCCn3nnc(-c4ccncc4)n3)n2)ccn1 | 35.5 µM [rising, single point] | –
Cc1ccc2cc(S(=O)(=O)NCCCC(=O)O)ccc2c1 | 14.1 µM [falling, partial curve] | –

Structure (SMILES) | AC50 [1] | AC50 [2]
COc1ccc2c(c1)OCC1=C2CCC2(C)C(=O)CC=C12 (centres undefined) | 2.06 µM [falling, full curve, poor fit] | –
Cc1ccc(NC(=O)CNC(=O)c2ccc(C)s2)nc1 | 29.1 µM [falling, single point] | –
O=C1/C(=C\c2ccccc2)CCc2c1[nH]c1ccccc21 | 18.4 µM [falling, single point] | –
Cc1ccc(C)c(N(C(=O)Cn2nnc3ccccc32)C(C(=O)NC(C)(C)C)c2ccsc2)c1 (centres undefined) | 5.62 µM [rising, single point] | –
N#Cc1ccc(-c2csc(-c3ccno3)n2)cc1 | 8.91 µM [rising, partial curve, poor fit] | –
C1CCC(C(CC2CCCCN2)C2CCCCC2)CC1 (centres undefined) | 29.1 µM [falling, single point] and 10 µM [falling, partial curve, poor fit] | –
FC(F)(F)Sc1ccc(NC(=S)NCc2ccccc2)cc1 | 35.5 µM [falling, single point] | 15.8 µM [rising, partial curve, poor fit]
O=C(CCNc1ccc(F)cc1)c1ccco1 | 18.4 µM [falling, single point] | 32.6 µM [rising, partial curve, poor fit]
Cn1c(=O)[nH]c(=O)c2c1nc(N1CCN(CCO)CC1)n2CCSc1nc2ccccc2s1 | 4.61 µM [falling, full curve, poor fit] | –
CCc1sc(C(=O)N2CCN(c3ncccn3)CC2)cc1Br | 17.8 µM [rising, single point] | –
Cc1nnc(SCCc2ccccc2)[nH]c1=O | 20 µM [falling, single point] | –
O=C(CSc1nc2ccccc2[nH]1)c1cccs1 | 8.91 µM [falling, partial curve] | –
O=C(CCc1ccccc1)Nc1ccccc1C(=O)NCc1ccco1 | 29.1 µM [falling, partial curve, poor fit] | –
O=C(O)/C=C\C(=O)Nc1ccc(N2CCN(c3ccc(Cl)cc3)CC2)cc1 | 35.5 µM [rising, single point] | –
O=S(=O)(c1cccs1)N1CCN(CCc2ccccc2)CC1 | 5.01 µM [rising, single point] | –
BrC(=C\c1ccccc1)/C=N/N1CCN(c2ccccc2)CC1 | 22.4 µM [falling, single point] | 22.4 µM [falling, single point]
COc1cc(C(=O)NNC(=O)c2ccc(NC(=O)C(C)(C)C)cc2)cc(OC)c1OC | 14.1 µM [rising, single point] | –
Cc1cccc(N=C2NN=C(c3c[nH]c4ccccc34)CS2)c1 | 29.1 µM [falling, single point] | –
COc1ccc(CCNC(=O)COC(=O)c2ccc(C)s2)cc1 | 29.1 µM [rising, single point] | –
Cc1cc(-c2ccc(C(C)C)c(S(=O)(=O)Nc3cc(C)on3)c2)on1 | 8.91 µM [rising, partial curve] | –
O=C(COC(=O)c1ccccc1O)Nc1cccc2ccccc12 | 0.411 µM [falling, full curve] | –
